Values of other authors as cited in patent US9630962B2, “4-amino-6-(2,6-dichlorophenyl)-2-(phenylamino)-pyrido[2,3-d]pyrimidin-7(8H)-one derivatives, synthesis and uses thereof” (INSTITUT QUÍMIC DE SARRIÁ, CETS FUNDACIÓ PRIVADA, priority 2013, dated 2017).
At least one compound was matched to its structure with a doubt left.

Key:
Conditions in all cases: cited from earlier work
[1] = tested on: relapsed or refractory MCL
[2] = tested on: relapsed/refractory DLBCL
[3] = tested on: relapsed follicular lymphoma

For `C=CC(=O)N1CCC[C@@H](n2nc(-c3ccc(Oc4ccccc4)cc3)c3c(N)ncnc32)C1` [ibrutinib], the CR [1] is given as 19.3%, the OR [1] is given as 66.1% and the PR [1] is given as 46.8%. For the same compound, the CR [2] was 5%, the OR [2] was 21.7% and the PR [2] was 16.7%. The CR [3] was 27%, the OR [3] was 54.5% and the PR [3] was 27%.
